Laboratory results: the supplement of paper PMC10849652
This is one part of the list.

Sequences of proteins named here, by UniProt entry; tags and fusion partners are left off. A change or cut given only in a name is not applied to a line headed by its entry.
UniProt Q9NY97: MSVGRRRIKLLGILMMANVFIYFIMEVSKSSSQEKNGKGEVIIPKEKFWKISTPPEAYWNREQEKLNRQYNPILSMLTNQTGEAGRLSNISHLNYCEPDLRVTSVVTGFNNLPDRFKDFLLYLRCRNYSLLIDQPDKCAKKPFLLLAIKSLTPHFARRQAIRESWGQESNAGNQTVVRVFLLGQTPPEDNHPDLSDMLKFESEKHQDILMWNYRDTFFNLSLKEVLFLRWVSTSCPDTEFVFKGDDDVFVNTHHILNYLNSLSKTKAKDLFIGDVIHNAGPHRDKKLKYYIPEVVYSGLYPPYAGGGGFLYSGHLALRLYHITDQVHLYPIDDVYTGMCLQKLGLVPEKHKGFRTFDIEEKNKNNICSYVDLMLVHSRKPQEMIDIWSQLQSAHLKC
UniProt Q9H6S1, whole entry, looked up: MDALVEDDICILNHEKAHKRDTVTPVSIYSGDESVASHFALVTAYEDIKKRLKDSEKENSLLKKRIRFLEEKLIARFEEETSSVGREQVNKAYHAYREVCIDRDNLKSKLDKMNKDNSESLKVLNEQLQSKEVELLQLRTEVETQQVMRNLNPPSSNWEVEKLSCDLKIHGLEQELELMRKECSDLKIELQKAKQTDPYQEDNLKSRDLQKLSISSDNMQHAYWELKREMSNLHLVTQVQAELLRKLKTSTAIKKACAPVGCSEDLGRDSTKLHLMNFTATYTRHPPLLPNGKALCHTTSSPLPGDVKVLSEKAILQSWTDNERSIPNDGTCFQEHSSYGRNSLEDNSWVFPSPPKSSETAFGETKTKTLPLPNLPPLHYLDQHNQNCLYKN
UniProt O43681: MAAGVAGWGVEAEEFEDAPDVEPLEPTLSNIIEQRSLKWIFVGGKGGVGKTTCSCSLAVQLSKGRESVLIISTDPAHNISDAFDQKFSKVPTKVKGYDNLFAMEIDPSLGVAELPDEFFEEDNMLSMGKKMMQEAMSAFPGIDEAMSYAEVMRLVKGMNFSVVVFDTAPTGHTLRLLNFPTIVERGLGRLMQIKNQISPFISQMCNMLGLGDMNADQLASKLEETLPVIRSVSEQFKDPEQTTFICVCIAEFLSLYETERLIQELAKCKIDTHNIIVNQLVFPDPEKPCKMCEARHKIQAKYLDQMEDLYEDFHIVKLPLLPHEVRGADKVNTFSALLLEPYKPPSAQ
UniProt P16615: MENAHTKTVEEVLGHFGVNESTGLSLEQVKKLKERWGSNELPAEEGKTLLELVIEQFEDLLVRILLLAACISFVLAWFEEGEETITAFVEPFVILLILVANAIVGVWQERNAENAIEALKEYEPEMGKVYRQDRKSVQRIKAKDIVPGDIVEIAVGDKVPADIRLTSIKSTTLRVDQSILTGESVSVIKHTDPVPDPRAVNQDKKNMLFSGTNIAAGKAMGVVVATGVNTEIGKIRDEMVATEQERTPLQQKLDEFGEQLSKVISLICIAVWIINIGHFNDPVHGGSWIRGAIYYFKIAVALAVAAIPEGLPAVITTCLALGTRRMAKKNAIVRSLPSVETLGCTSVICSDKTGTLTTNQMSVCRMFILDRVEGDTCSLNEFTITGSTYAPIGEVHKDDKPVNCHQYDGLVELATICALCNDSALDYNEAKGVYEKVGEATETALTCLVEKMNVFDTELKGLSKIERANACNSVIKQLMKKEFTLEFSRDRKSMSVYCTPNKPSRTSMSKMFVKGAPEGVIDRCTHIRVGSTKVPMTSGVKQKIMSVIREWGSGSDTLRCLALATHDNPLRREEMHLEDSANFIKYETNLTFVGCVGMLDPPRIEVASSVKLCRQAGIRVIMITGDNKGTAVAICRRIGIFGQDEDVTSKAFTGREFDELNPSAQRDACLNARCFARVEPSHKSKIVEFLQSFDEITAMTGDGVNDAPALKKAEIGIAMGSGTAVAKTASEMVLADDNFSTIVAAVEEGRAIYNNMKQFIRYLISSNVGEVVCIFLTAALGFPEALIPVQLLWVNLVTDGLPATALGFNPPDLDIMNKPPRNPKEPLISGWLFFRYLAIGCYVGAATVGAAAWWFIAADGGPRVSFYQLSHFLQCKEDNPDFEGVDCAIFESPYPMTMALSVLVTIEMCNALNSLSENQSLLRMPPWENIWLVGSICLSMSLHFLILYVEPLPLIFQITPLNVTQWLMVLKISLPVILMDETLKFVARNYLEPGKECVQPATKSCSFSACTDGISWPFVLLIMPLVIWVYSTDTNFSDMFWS
UniProt Q12797: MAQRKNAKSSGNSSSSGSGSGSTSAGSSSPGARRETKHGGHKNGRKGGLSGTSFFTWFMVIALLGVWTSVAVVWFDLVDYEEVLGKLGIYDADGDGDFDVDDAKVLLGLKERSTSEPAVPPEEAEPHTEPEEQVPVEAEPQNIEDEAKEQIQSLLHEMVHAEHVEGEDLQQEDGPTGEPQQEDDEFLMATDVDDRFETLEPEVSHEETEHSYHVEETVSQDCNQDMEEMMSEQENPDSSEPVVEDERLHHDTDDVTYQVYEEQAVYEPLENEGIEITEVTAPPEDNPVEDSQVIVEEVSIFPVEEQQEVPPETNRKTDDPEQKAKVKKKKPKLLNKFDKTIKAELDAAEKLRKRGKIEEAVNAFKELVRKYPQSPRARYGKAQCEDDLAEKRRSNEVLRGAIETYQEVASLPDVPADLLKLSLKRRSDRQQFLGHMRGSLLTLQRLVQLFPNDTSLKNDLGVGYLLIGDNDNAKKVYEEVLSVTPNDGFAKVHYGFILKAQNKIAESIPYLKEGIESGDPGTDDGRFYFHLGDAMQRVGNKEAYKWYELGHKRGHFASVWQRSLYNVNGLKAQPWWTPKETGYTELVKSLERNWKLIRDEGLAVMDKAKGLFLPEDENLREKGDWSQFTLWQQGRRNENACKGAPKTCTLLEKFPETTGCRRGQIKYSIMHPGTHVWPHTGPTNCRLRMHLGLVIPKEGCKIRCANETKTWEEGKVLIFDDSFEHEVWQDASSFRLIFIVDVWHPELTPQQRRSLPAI
UniProt Q6DD88: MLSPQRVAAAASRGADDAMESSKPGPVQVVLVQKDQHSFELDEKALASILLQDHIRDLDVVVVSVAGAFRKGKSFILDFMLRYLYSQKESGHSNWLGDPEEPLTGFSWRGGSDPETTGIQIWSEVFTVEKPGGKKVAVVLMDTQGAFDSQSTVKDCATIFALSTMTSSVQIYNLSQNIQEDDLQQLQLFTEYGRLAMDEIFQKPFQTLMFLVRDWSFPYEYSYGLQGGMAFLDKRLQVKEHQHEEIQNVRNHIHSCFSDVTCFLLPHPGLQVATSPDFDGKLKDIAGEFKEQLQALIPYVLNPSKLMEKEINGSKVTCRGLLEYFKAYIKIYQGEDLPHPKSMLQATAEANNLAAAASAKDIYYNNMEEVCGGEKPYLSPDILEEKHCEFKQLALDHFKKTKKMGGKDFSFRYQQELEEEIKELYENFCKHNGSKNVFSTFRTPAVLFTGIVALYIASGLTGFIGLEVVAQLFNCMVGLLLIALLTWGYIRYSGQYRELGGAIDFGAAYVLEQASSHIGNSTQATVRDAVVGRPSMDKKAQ
UniProt P25311: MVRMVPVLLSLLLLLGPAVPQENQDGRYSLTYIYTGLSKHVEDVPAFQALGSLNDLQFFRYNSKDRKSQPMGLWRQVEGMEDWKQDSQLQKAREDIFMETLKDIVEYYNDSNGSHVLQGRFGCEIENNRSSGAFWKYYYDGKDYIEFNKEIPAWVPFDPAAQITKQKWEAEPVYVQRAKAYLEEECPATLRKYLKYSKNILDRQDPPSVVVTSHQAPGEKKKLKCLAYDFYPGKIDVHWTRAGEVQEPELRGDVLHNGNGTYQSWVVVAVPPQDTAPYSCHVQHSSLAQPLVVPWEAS
UniProt P17544: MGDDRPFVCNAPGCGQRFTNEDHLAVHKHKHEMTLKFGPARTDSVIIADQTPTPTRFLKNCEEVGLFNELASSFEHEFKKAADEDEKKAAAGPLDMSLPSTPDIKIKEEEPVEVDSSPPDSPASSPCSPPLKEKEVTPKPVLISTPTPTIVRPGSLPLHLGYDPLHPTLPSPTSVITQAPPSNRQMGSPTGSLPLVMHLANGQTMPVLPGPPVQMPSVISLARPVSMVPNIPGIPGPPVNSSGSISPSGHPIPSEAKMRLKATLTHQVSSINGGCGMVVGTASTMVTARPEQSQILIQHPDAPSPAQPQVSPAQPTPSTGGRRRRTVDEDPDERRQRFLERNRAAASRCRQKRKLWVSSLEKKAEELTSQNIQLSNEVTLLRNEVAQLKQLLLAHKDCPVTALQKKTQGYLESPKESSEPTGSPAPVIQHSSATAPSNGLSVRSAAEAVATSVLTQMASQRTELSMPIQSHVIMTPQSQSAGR
UniProt Q9H7T9: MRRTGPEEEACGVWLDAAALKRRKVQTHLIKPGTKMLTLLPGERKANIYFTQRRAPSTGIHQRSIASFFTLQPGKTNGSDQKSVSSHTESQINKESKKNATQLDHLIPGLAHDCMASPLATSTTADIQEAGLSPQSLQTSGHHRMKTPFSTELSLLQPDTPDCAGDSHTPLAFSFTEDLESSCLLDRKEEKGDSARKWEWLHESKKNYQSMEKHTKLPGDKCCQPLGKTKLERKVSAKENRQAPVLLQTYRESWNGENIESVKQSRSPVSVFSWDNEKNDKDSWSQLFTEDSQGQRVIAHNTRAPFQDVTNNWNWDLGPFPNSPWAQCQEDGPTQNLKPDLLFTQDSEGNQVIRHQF
UniProt Q9H1I8: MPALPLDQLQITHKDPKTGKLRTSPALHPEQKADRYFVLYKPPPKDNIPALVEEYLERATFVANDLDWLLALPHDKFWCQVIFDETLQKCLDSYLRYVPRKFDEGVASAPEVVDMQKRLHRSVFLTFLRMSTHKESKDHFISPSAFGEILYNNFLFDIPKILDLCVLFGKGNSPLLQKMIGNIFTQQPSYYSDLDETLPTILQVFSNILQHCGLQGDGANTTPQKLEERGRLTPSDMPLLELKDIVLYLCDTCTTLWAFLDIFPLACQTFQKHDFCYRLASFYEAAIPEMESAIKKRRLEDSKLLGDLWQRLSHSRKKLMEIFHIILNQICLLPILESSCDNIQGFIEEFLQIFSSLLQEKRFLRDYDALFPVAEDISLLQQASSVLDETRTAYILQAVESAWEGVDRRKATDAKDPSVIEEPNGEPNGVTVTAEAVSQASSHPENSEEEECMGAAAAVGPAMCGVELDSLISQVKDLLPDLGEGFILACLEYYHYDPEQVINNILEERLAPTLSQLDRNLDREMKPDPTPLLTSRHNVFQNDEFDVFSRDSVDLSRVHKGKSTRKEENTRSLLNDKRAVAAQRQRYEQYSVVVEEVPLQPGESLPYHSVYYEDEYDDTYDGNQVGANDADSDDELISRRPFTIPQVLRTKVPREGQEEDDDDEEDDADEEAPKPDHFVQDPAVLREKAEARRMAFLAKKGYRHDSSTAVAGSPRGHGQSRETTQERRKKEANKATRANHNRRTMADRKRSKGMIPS
UniProt Q9BSB4: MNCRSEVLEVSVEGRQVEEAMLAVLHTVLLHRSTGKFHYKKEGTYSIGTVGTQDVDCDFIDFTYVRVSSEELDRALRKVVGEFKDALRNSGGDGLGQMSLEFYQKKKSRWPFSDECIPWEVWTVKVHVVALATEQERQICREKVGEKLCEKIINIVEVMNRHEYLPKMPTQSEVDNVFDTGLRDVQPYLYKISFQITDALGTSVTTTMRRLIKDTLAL
UniProt O75787, whole entry, looked up: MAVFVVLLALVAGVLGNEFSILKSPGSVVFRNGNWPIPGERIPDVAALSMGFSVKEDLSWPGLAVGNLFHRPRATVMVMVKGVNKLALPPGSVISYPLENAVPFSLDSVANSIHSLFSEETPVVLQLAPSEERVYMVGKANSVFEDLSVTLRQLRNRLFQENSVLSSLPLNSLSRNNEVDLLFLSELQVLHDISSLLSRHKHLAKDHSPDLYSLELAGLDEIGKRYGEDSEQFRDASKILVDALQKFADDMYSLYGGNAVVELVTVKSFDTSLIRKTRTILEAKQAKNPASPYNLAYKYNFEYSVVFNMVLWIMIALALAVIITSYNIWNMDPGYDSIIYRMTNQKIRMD
UniProt Q96IX5: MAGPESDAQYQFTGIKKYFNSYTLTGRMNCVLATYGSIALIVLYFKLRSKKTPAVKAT
UniProt Q8N9N2: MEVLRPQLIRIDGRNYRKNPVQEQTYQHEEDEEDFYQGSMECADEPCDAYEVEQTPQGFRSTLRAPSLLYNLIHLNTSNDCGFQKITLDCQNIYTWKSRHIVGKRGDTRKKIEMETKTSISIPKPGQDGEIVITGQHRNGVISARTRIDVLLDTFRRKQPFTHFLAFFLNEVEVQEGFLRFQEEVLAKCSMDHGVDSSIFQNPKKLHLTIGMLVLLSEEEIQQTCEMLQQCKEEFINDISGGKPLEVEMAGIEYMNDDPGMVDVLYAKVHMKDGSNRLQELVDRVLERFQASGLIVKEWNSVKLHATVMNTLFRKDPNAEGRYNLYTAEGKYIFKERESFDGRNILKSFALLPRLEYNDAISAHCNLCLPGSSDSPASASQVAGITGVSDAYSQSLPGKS
UniProt O75947: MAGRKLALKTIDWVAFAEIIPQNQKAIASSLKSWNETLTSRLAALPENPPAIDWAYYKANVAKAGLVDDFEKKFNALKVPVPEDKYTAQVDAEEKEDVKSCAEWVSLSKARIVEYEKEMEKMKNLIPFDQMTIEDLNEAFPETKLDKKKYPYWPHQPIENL

Key:
Assay in all cases: log2 fold change, soluble protein after heating vs DMSO (PISA); higher = thermal stabilisation; K562 lysate, 10 uM; active = over 0.2 and 3.5 SD of the protein, either way, in both replicates (recomputed)
[1] = compound: CN1CC[C@H](c2c(O)cc(O)c3c(=O)cc(-c4ccccc4Cl)oc23)[C@H](O)C1 [alvocidib]
Summary of the method: (§1)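 Thermal stability, expressed as log-two fold change relative to solvent controls, is given from duplicates. Crude K562 extract in PBS pH 7.4 with 1 mM MgCl2, at 1 mg/mL protein, was treated with 10 μM compound for 30 min and heated in aliquots for 3 min across 48°C-58°C. After pooling, adjustment to 0.5% NP-40 at 4°C and centrifugation at 21,000xg for 90 min, supernatant protein was measured by TMTpro 16plex LC-MS/MS with channel sums equalised.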

[2] = compound: CN1CCc2c(c3ccccc3n2Cc2ccc(C(=O)NO)cc2)C1 [Tubastatin A]
Summary of the method: as §1

[3] = compound: CNC(=O)C1=CC=CC=C1NC2=NC(=NC=C2Cl)NC3=C(C=C(C=C3)N4CCOCC4)OC
Summary of the method: as §1

[4] = compound: CNC(=O)c1ccc(Nc2ncc(C(F)(F)F)c(NCc3nccnc3N(C)S(C)(=O)=O)n2)cc1 [defactinib]
Summary of the method: as §1

[5] = compound: CNc1nc(-c2ccc3c(N)n[nH]c3c2)cc(N2C[C@@H](C(=O)NC3CCCCC3)CC[C@H]2C)n1
Summary of the method: as §1

[6] = compound: COC(=O)N[C@@H](C)CNc1nccc(-c2cn(C(C)C)nc2-c2cc(Cl)cc(NS(C)(=O)=O)c2F)n1 [encorafenib]
Summary of the method: as §1

[7] = compound: COC(=O)[C@H](CCSC)NC(=O)C1=C(C=C(C=C1)NC[C@H](CS)N)C2=CC=CC=C2
Summary of the method: as §1

[8] = compound: COc1cc(Nc2ncc3c(n2)-c2ccc(Cl)cc2C(c2c(F)cccc2OC)=NC3)ccc1C(=O)O [alisertib]
Summary of the method: as §1

[9] = compound: COc1cc2nc(-c3cc(F)ccc3O)nc(N[C@@H]3CNC[C@H]3C(C)(C)O)c2cc1OC
Summary of the method: as §1

[10] = compound: COc1cc2ncnc(Nc3ccc(F)c(Cl)c3)c2cc1OCCCN1CCOCC1 [gefitinib]
Summary of the method: as §1

Measured: log2 fold change

B3GNT2 (UniProt Q9NY97)
inactive: [1] -0.036 | [2] 0.022 | [3] 0.044 | [4] 0 | [5] 0.014 | [6] 0.085 | [7] -0.023 | [8] 0.056 | [9] -0.095 | [10] 0.024

AZI2 (UniProt Q9H6S1)
inactive: [1] 0.188 | [2] 0.01 | [3] 0.114 | [4] 0.08 | [5] 0.022 | [6] -0.029 | [7] 0.005 | [8] 0.06 | [9] -0.048 | [10] -0.08

ASNA1 (UniProt O43681)
inactive: [1] 0.051 | [2] -0.043 | [3] -0.014 | [4] -0.011 | [5] -0.01 | [6] -0.008 | [7] 0.001 | [8] -0.012 | [9] -0.002 | [10] 0.022

ATP2A2 (UniProt P16615)
inactive: [1] -0.019 | [2] 0 | [3] -0.021 | [4] 0.015 | [5] -0.037 | [6] 0.053 | [7] -0.155 | [8] 0.033 | [9] 0.028 | [10] 0.021

ASPH (UniProt Q12797)
inactive: [1] -0.012 | [2] 0.018 | [3] -0.01 | [4] 0.023 | [5] -0.006 | [6] 0.018 | [7] -0.047 | [8] 0.042 | [9] -0.025 | [10] -0.041

ATL3 (UniProt Q6DD88)
inactive: [1] 0.016 | [2] 0.042 | [3] -0.007 | [4] 0.011 | [5] -0.046 | [6] 0.001 | [7] -0.021 | [8] -0.03 | [9] 0.184 | [10] -0.039

ATP6V1H (UniProt Q9UI12)
inactive: [1] -0.019 | [2] 0.007 | [3] -0.009 | [4] -0.024 | [5] 0.02 | [6] 0.005 | [7] -0.021 | [8] -0.021 | [9] 0.028 | [10] 0.013

ATPAF2 (UniProt Q8N5M1)
inactive: [1] -0.12 | [2] 0.029 | [3] 0.011 | [4] 0.022 | [5] 0.126 | [6] -0.038 | [7] -0.037 | [8] -0.029 | [9] 0.032 | [10] -0.093

AZGP1 (UniProt P25311)
inactive: [1] 0.128 | [2] 0.396 | [3] -0.225 | [4] 0.104 | [5] -0.302 | [6] 0.035 | [7] 0.958 | [8] -0.223 | [9] -0.228 | [10] 0.203

ATM (UniProt Q13315)
inactive: [1] -0.048 | [2] 0.013 | [3] 0.013 | [4] 0.105 | [5] -0.005 | [6] -0.031 | [7] 0.087 | [8] -0.01 | [9] 0.078 | [10] 0.022

ATF7 isoform 6 (UniProt P17544)
inactive: [1] 0.06 | [2] 0.047 | [3] -0.049 | [4] 0.034 | [5] 0.171 | [6] 0.01 | [7] 0.029 | [8] 0.023 | [9] -0.059 | [10] -0.073

ATAD1 (UniProt Q8NBU5)
inactive: [1] -0.047 | [2] -0.016 | [3] 0.045 | [4] -0.054 | [5] 0.006 | [6] -0.049 | [7] -0.042 | [8] -0.119 | [9] 0.039 | [10] 0.22

ATRX (UniProt P46100)
inactive: [1] 0.018 | [2] -0.111 | [3] 0.179 | [4] -0.05 | [5] -0.15 | [6] 0.04 | [7] -0.034

ATG12 (UniProt O94817)
inactive: [1] -0.043 | [2] -0.002 | [3] 0.074 | [4] -0.037 | [5] 0.02 | [6] 0.065 | [7] -0.096 | [8] 0.021 | [9] 0.002 | [10] 0.009

AUNIP isoform 2 (UniProt Q9H7T9)
inactive: [1] 0.086 | [2] -0.148 | [3] 0.128 | [4] 0.065 | [5] -0.017 | [6] 0.03 | [7] -0.189

ASCC2 (UniProt Q9H1I8)
inactive: [1] -0.009 | [2] -0.105 | [3] 0.002 | [4] 0 | [5] -0.003 | [6] 0.007 | [7] 0.037 | [8] -0.014 | [9] 0.016 | [10] -0.057

ATG101 (UniProt Q9BSB4)
inactive: [1] 0.03 | [2] -0.018 | [3] 0.09 | [4] 0.031 | [5] -0.014 | [6] 0.081 | [7] -0.057 | [8] 0.068 | [9] -0.011 | [10] -0.016

ATP2C1 isoform 3 (UniProt P98194)
inactive: [1] -0.06 | [2] 0.005 | [3] 0.007

B3GAT3 (UniProt O94766)
inactive: [1] -0.03 | [2] -0.051 | [3] 0.039 | [4] 0.069 | [5] 0.018 | [6] 0.196 | [7] -0.011 | [8] 0.139 | [9] -0.023 | [10] -0.141

ATP1A1 (UniProt P05023)
inactive: [1] 0.025 | [2] 0.038 | [3] -0.002 | [4] -0.006 | [5] -0.005 | [6] 0.001 | [7] -0.019 | [8] -0.012 | [9] 0.004 | [10] -0.004

ATP6AP2 (UniProt O75787)
inactive: [1] 0.079 | [2] -0.034 | [3] 0.022 | [4] 0.099 | [5] 0.003 | [6] 0.044 | [7] 0.015 | [8] -0.009 | [9] -0.031 | [10] -0.02

ATG4A (UniProt Q8WYN0)
inactive: [1] 0 | [2] -0.104 | [3] 0.042 | [4] 0.036 | [5] 0.01 | [6] 0.037 | [7] -0.087 | [8] -0.016 | [9] -0.001 | [10] 0.052

ATP5MD (UniProt Q96IX5)
inactive: [1] -0.072 | [2] -0.047 | [3] 0.107 | [4] 0.106 | [5] 0.085 | [6] 0.059 | [7] 0.241 | [8] -0.026 | [9] 0 | [10] -0.116

ATP11B (UniProt Q9Y2G3)
inactive: [1] -0.093 | [2] 0.018 | [3] 0.015 | [4] -0.018 | [5] 0.009 | [6] 0.025 | [7] -0.029 | [8] -0.006 | [9] 0.005 | [10] 0.035

ASCC1 isoform 2 (UniProt Q8N9N2)
inactive: [1] -0.006 | [2] -0.049 | [3] -0.008 | [4] 0 | [5] -0.087 | [6] -0.014 | [7] 0.05 | [8] 0.006 | [9] 0 | [10] -0.012

AVL9 (UniProt Q8NBF6)
inactive: [1] -0.047 | [2] 0.027 | [3] 0.006 | [4] -0.024 | [5] 0.02 | [6] 0.024 | [7] -0.02 | [8] -0.019 | [9] 0.026 | [10] 0.036

ATP5PD (UniProt O75947)
inactive: [1] 0.019 | [2] 0.067 | [3] -0.024 | [4] 0.004 | [5] 0.057 | [6] -0.033 | [7] -0.014 | [8] 0.017 | [9] 0.005 | [10] -0.041

ATG2B (UniProt Q96BY7)
inactive: [1] -0.009 | [2] -0.017 | [3] 0 | [4] -0.018 | [5] -0.004 | [6] 0.035 | [7] -0.047 | [8] -0.008 | [9] 0.002 | [10] -0.035

ATG16L1 (UniProt Q676U5)
inactive: [1] 0 | [2] 0.034 | [3] -0.003 | [4] -0.011 | [5] 0.022 | [6] -0.001 | [7] 0.025 | [8] -0.009 | [9] -0.007 | [10] 0.021

ATIC (UniProt P31939)
inactive: [1] -0.023 | [2] -0.024 | [3] 0.018 | [4] -0.018 | [5] 0.016 | [6] -0.046 | [7] 0.098 | [8] 0.041 | [9] 0 | [10] -0.03

ATP13A1 (UniProt Q9HD20)
inactive: [1] 0.051 | [2] 0.036 | [3] -0.012 | [4] 0.028 | [5] -0.002 | [6] -0.008 | [7] -0.067 | [8] 0.055 | [9] 0.03 | [10] 0.011

Quoted from above (2 entries):
ATG4A (UniProt Q8WYN0)
inactive: [1] 0 | [2] -0.104 | [3] 0.042 | [4] 0.036 | [5] 0.01 | [6] 0.037 | [7] -0.087 | [8] -0.016 | [9] -0.001 | [10] 0.052

ATP5MD (UniProt Q96IX5)
inactive: [1] -0.072 | [2] -0.047 | [3] 0.107 | [4] 0.106 | [5] 0.085 | [6] 0.059 | [7] 0.241 | [8] -0.026 | [9] 0 | [10] -0.116
